Laboratory results published in patent US20250213545A1 (AJOU UNIVERSITY INDUSTRY-ACADEMIC COOPERATION FOUNDATION, priority 2022, published 2025).

Key:
IBA-1 positive cells = conditions: PFF-fexofenadine group vs PFF-PBS; 20 mg/kg orally once a day; day 30
Method: The skin was sutured, and the animal was removed from the stereotaxic apparatus and placed on a heating pad for 30 minutes.

TH-positive neurons = conditions: 6-OHDA+fexofenadine group; 20 mg/kg orally once a day; 21 days after 6-OHDA injection
Method: Specifically, 8-week-old C57BL/6 mice (Daehan Biolink, Eumseong, North Chungcheong Province, Korea) were anesthetized by intraperitoneal (i.p.) injection of 200 mg/kg of 2,2,2-tribromoethanol (Sigma-Aldrich), and they were placed in a stereotaxic apparatus (David Kopf Instruments, Tujunga, CA, USA) equipped With a mouse adapter. Using a Hamilton syringe (Hamilton, Bonaduz, Switzerland), 2 μL of 6-OHDA-HCl solution (2 mg/mL) (Sigma Aldrich) in 0.02% ascorbic acid was injected into the right striatum at the following stereotactic coordinates (mm from the bregma): IP+1.0; ML-1.8; DV −3.2. The skin was sutured, and the animal was removed from the stereotaxic apparatus and placed on a heating pad for 30 minutes. Normal control mice for the diseased mouse model were injected with a vehicle (0.02% ascorbic acid) instead of 6-OHDA-HCl solution.
Behavioral experiments were performed 18 days after 6-01-IDA injection, and mice were sacrificed 21 days after 6-01-IDA injection, and histological analysis was performed.

## CC(C)(C(=O)O)c1ccc(C(O)CCCN2CCC(C(O)(c3ccccc3)c3ccccc3)CC2)cc1 (stereo not drawn) [fexofenadine]
IBA-1 positive cells
  density of IBA-1 positive cells in the cortex and striatum, contralateral side: decreased compared to the diseased mouse control group
  density of IBA-1 positive cells in the cortex, striatum and substantia nigra, ipsilateral side: significantly reduced
TH-positive neurons
  density of TH-positive neurons in the striatum, ipsilateral compared to contralateral side, compared to the normal mouse control group: ~80%
